The text below walks through data of PMC6152089, “Steroid Alkaloids from Holarrhena africana with Strong Activity against Trypanosoma brucei rhodesiense” (Molecules : A Journal of Synthetic Chemistry and Natural …, 2017).

For the data set, the system named is Trypanosoma brucei rhodesiense (bloodstream trypomastigotes, STIB 900 strain). Nature of the data set: In vitro anti-trypanosomal activity against Tbr. The class given is cell-based. The note with it: isolated compounds; SI = cytotoxic IC50 (L6)/IC50 Tbr. Here is the method:
In vitro tests for biological activity of the crude extracts, fractions, sub-fractions and isolated compounds against Trypanosoma brucei rhodesiense (bloodstream trypomastigotes, STIB 900 strain), Trypanosoma cruzi (amastigotes, Tulahuen C4 strain), Leishmania donovani (amastigotes, MHOM-ET-67/L82 strain), Plasmodium falciparum (intraerythrocytic form, NF54 strain) and cytotoxicity test against mammalian L6 cell line from rat skeletal myoblasts were performed according to the established standard protocol. However, only the activity data against Trypanosoma brucei rhodesiense is reported due to the inactivity of the tested substances against other parasites at the concentration tested.

Molecules are shown by their SMILES.

Molecule `CC(=O)[C@H]1CC[C@H]2[C@@H]3CC[C@H]4C[C@H](N)CC[C@]4(C)[C@H]3CC[C@]12C` [Compound 6, 3α-dihydroholaphyllamine] showed an SI of 14.1.
Then `CC(=O)[C@H]1CC[C@H]2[C@@H]3CC[C@H]4C[C@@H](N)CC[C@]4(C)[C@H]3CC[C@]12C` [Compound 5, 3β-dihydroholaphyllamine], with 25.8.
